Source: US7834148B2, “Protein phosphorylation imaging systems, methods of making phosphorylation imaging systems, and methods of use thereof” (Stanford University, priority 2006, dated 2010)
For at least one compound, name, drawing or mass did not settle the structure.

Assays:
Akt kinase activity [1] = conditions: cited from earlier work
Akt kinase activity [2] = test: Akt kinase sensor (AS1T/AS1A) complemented FL activity, luminometer assay in transiently transfected BT474 cells; type: cell-based, human; conditions: BT474 transiently transfected with non-phosphorylable AS1A, 24 hours, p>0.05
Method: FL activity was determined by luminometer assays using cell lysates and normalized for protein content and transfection efficiency. LY treatment of BT474 cells transiently transfected with AS1T led to a dose dependent increase in FL activity in (1.3-fold maximum increase, p<0.05 at 50 μM, relative to carrier control treated cells).
Transfections were performed in 80% confluent 24 hr-old cultures of 293T and BT474 cells. For transient transfection, 250 ng/well of pcDNA molar equivalent of each AS1A and AS1T were used in 12-well tissue culture plates and 5 μl Lipofectamine 2000 was used per transfection following the manufacturer's instructions. 5 ng of pcDNA3.1(+) vector expressing full length RL was co-transfected per well to normalize for transfection efficiency. […]
In brief, transfected cells were lysed in 200 μl of ice-cold 1× passive lysis buffer supplied by Promega and were shaken for 15 mins on ice. […] RL activity was determined as described for FL activity, except 0.5 μg of coelenterazine dissolved in 100 μl of was used. Protein concentrations in cell lysates were determined by Bradford Assay (Bio-Rad). FL activities were normalized for protein content and for transfection efficiency using RL activity and expressed as relative light units per microgram protein per minute of counting (RLU/μg protein/min).

Akt kinase activity [3] = test: Akt kinase sensor complemented FL activity, bioluminescence imaging of intact 293T/AS1T and 293T/AS1A stable cells; type: cell-based, human; conditions: for complemented FL activity: compared to 293T/AS1A
Method: Complemented FL activity at each time point was determined by bioluminescence imaging of intact cells by addition of D-luciferin (FIG. 7a), prior to normalization for protein content (FIG. 7b).
FL activities in intact cells were determined by bioluminescence imaging of intact cells as described above. Cells were lysed in 1% NP40 buffer (Cell Signaling, Beverly, Mass.) for 15 mins on ice followed by centrifugation at 1×10^4 g to remove cell debris. Protein concentrations were determined by Biorad protein Dc assay (Biorad). FL activities were normalized to protein content and then to that of carrier control treated cells and expressed as normalized FL activity±standard error of means (S.E.M.)

[4] = tested on: phosphorylated Akt(S^473); test: Phosphorylation-specific western blotting of Akt in cell lysates; type: cell-based, human; conditions: LY 24 hours or perifosine 6 hours
Method: To validate AS1T as a genetically-encoded reporter for indirect imaging of endogenous Akt kinase activity, confirmation needed to be made that inhibition of endogenous Akt phosphorylation/kinase activities by LY and perifosine corresponded to increase in complemented FL activities in 293T/AS1T cells, but not in 293T/AS1A cells. 293T/AS1T and 293T/AS1A cells were treated with perifosine (6 hours), LY (24 hours) and their respective carrier controls. Complemented FL activities were determined by bioluminescence imaging of intact cells while Akt phosphorylation status/kinase activities in cell lysates were determined by phosphorylation-specific western blotting and in vitro kinase assay using purified glycogen synthase kinase 3β (GSK-3β) as the substrate, respectively. In 293T/AS1T cells treated with LY or perifosine, complemented FL activity increased (FIGS. 8a and 8c), while the amount of phosphorylated Akt (FIGS. 8b and 8d, top panels) and phosphorylated GSk-3, (FIGS. 8b and 8d, bottom panel) decreased, relative to carrier control treated cells. […]
To determine the expression of total and phosphorylated Akt in 293T/AS1A and 293T/AS1T, cell lysates from the triplicate wells from the above FL assay were combined and the protein concentrations were re-determined. […]

Akt kinase = test: In vitro Akt kinase assay in cell lysates using purified GSK-3β as substrate; type: cell-based, human; conditions: LY 24 hours or perifosine 6 hours
Method: Complemented FL activities were determined by bioluminescence imaging of intact cells while Akt phosphorylation status/kinase activities in cell lysates were determined by phosphorylation-specific western blotting and in vitro kinase assay using purified glycogen synthase kinase 3β (GSK-3β) as the substrate, respectively.
To measure Akt kinase activities, 200 μg of whole cell lysates were used in an in vitro Akt kinase assay using a Cell Signaling kit (Beverly, Mass.). Briefly, Akt was immunoprecipitated using the immobilized Akt antibody, followed by an in vitro kinase assay at 30° C. for 1 hour using 1 μg of the purified GSK-3β fusion protein as the substrate. The kinase reaction was terminated with 3× loading buffer and heated at 95° C. for 3 mins. […] Membranes were developed as described above. In all cases, band intensities were quantified by Image J (National Institute of Health, Bethesada, Md.).

[5] = 293T/AS1T cells, relative to carrier control

## O=c1cc(N2CCOCC2)oc2c(-c3ccccc3)cccc12 [LY, LY294002]
Akt kinase activity [1]
  maximum induction of FRET-based sensors: 1.2 fold
Akt kinase activity [2]
  complemented FL activity: no significant increase
Akt kinase activity [3]; 293T/AS1T at 12 and 24 hours, p<0.05 at all concentrations
  complemented FL activity: dose-dependent increase
Akt kinase activity [3]; 293T/AS1T at 6 hours, p>0.05
  complemented FL activity: not at 6 hours
Akt kinase activity [3]; 293T/AS1T cells
  time of maximum increase in complemented FL activity: 24 h
Akt kinase activity [3]; 293T/AS1T, drug then carrier control, vs carrier control then drug or drug throughout, LY 50 μM 24+24 hours, perifosine 25 μM 6+6 hours
  complemented FL activity after washout (reversibility): substantially lowered
[4]; 293T/AS1A cells
  amount of phosphorylated Akt: decreased
[4]; [5]
  amount of phosphorylated Akt: decreased
Akt kinase; 293T/AS1A cells
  amount of phosphorylated GSK-3β: decreased
Akt kinase; [5]
  amount of phosphorylated GSK-3β: decreased
